Laboratory results published in patent US20170266157A1, “METHODS FOR WOUND HEALING AND SCAR PREVENTION” (priority 2016, published 2017).
For at least one compound, name, drawing or mass did not settle the structure.

System: ear punch-hole wound (mouse pinna)
Test: Punch-hole biopsy of the ear of mice, topical treatment
Type: in vivo, ICR breeder mice
Settings: topical once daily, within 21 days of punch-hole biopsy; 2.4 μg RT1061, 80 μg FK506
Experimental: Retired ICR breeder mice of both sexes with weight between 45 and 50 grams were subject to single bilateral punch-hole biopsies. The animals were then randomly assigned to one of three groups to receive either 2.4 μg of RT1061, 80 μg FK506 or a vehicle control. RT1061, FK506 or vehicle control was applied topically to both the ventral and dorsal surface of the ear, once each day including immediately after biopsy.
All wounds were photographed using a Nikon CoolPix 990 digital camera. Each image included a metric ruler that had been approximated to the wound. The images of the wounds were opened in Adobe Photoshop, and using the “measurement tool”, the length, in pixels, of 3 cm along the ruler's straight edge was determined. That number was used to calculate a conversion factor that was then used to normalize each photograph. The conversion factor was calculated as 100/length. To normalize the area of the lesion in a photograph, the […] using the “magic wand” tool, and the number of voxels were multiplied by the conversion factor, thus generating the equation: area=volume (voxels)*conversion factor. The area at t=0 was defined as 100%. […] The mean area of the initial hole was calculated as average […] of the punches at t=0 (determined by using an outline of the hole measured against the ruler, using Adobe Photoshop) times π. […]

C=CC[C@@H]1/C=C(\C)C[C@H](C)C[C@H](OC)[C@H]2O[C@@](O)(C(=O)C(=O)N3CCCC[C@H]3C(=O)O[C@H](/C(C)=C/[C@@H]3CC[C@@H](O)[C@H](OC)C3)[C@H](C)[C@@H](O)CC1=O)[C@H](C)C[C@@H]2OC [FK506, reference compound] was tested, and the “regeneration of mouse pinna tissue (ear-hole closure)” value was “did not lead to regeneration”.
